Experimental findings from PubChem BioAssay AID258 (DTP/NCI, 2004) are described below.

Molecules are shown by their SMILES. The list shows only some results of the screen, not a fair sample: it is rich in T/C values a quarter to a half above the control, in often repeated tests (any T/C) and in doses without a T/C. Other doses and runs of a compound stand elsewhere. T/C gives the treated animals as a percentage of the vehicle group. Some doses have a count of surviving animals in place of a T/C: the source holds a T/C of zero for them, seemingly a mark for toxic or unscored doses. Some survivor counts are full or nearly so, which does not show that the dose was tolerated: survival well below the control is almost never listed, so the zero probably covers shortened survival too. Survivors were counted at the toxicity check, usually on the fifth day, unless a day is given; later deaths do not show. Schedules are NCI's codes, taken here to give the interval after Q, in days (D) or hours (H), and the number of doses after X. Some entries hold several experiments; the results are listed from low to high. Some schedules carry Z or #; the key to these is not given. For survival time, this PubChem deposit counts one and a half times the control or more as active, and values a quarter to a half above the control carry no call in these data; other NCI protocols may use other cut-offs. Some T/C values carry the count of animals alive at the toxicity check (mostly the fifth day); without a count, all were alive then.

For this assay, the system named is CD2F1 mice, L1210 leukemia sc, survival T/C. The assay is described as follows: NCI In Vivo Anticancer Drug Screen. Data for tumor model L1210 Leukemia (subcutaneous) in CD2F1 (CDF1) mice. Particulars: T/C endpoint: median survival time, higher T/C = longer survival. A digest of the protocol:
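T/C ratio: treated-group survival or tumor size over vehicle-control group measurement, in mice carrying transplanted tumors.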

Turning to `COc1cccc2c1C(=O)c1c(O)c3c(c(O)c1C2=O)C[C@@](O)(C(=O)CO)C[C@@H]3OC1CC(N)C(O)C(C)O1` (some centres undefined), the survivor count reads like this: (dose: 0.25 mg/kg/injection, schedule: Q01DX009 (sc), vehicle: saline) 5 of 10; (dose: 0.5 mg/kg/injection, schedule: Q01DX009 (sc), vehicle: saline) 4 of 10; (dose: 1.0 mg/kg/injection, schedule: Q01DX009 (sc), vehicle: saline) 4 of 10; (dose: 2.0 mg/kg/injection, schedule: Q01DX009 (sc), vehicle: saline) 6 of 10; (dose: 4.0 mg/kg/injection, schedule: Q01DX009 (sc), vehicle: saline) 6 of 10; (dose: 8.0 mg/kg/injection, schedule: Q01DX009 (ip), vehicle: saline) 8 of 10 and 10 of 10. In addition, the T/C is 126 % of control (dose: 3.0 mg/kg/injection, schedule: Q01DX009 (sc), vehicle: saline); 128 [9 of 10 alive] and 139 % of control (dose: 4.0 mg/kg/injection, schedule: Q01DX009 (sc), vehicle: saline, evaluated on day 30); 120 % of control (dose: 4.0 mg/kg/injection, schedule: Q01DX009 (sc), vehicle: saline, evaluated on day 45); 125 % of control (dose: 6.0 mg/kg/injection, schedule: Q01DX009 (sc), vehicle: saline).
On to `CCOC(=O)NP(=O)(N1CC1)N1CC1`, for which the survivor count is listed as 6 of 10 (dose: 3.0 mg/kg/injection, schedule: Q01DX Z (sc), vehicle: water) and 5 of 10 (dose: 5.0 mg/kg/injection, schedule: Q01DX Z (sc), vehicle: water). Besides, the T/C is 144 % of control [8 of 10 alive] (dose: 8.4 mg/kg/injection, schedule: Q01DX Z (sc), vehicle: water) and 133 % of control (dose: 39.0 mg/kg/injection, schedule: Q01DX Z (sc), vehicle: water).
